Assay results published in patent US4336400A, “3-(Hydroxy or hydroxymethyl)-4-hydroxy-alpha(aminomethyl)benzyl alcohols and methods of use” (Sterling Drug Inc., priority 1978, dated 1982).
At least one structure is not confirmed: it was looked up by name or label, or the drawing left a doubt.

System: guinea pig bronchioles constricted by carbachol
Assay: Bronchodilator Test Method II: in vitro, perfused guinea pig lung, bronchioles constricted by carbachol
Conditions: for Bronchodilator Action, Duration (min) Mean: dose mcg(base) given
Experimental: Bronchodilator activity was tested in anesthetized dogs (Test Method I) and in vitro on the perfused guinea pig lung (Test Method II), using the following pharmacological test procedures:
In this method bronchodilator activity in vitro was determined by testing the effect of graded doses of the test compounds on guinea pig bronchioles constricted by carbachol, using the technique reported by Sollman and von Oettingen, Proc. Soc. Exp. Biol. Med., 25, 692 (1928) as modified by Tainter, Pedden, and James, J. Pharm. Exp. Ther., 51, 371 (1934) and by Luduena, von Euler, Tuller, and Lands, Arch. Intern. Pharmacol., III, 392 (1957).

Row | Structure (SMILES) | ED50 (Doryl conc. 1:5 million) | Bronchodilator Action, Duration (min) Mean (Doryl conc. 1:5 million) [min] | Bronchodilator Action, Duration (min) Mean (Doryl conc. 1:10 million) [min]
1 | CC(C)(C)NCC(O)c1ccc(OC(=O)C(C)(C)C)c(O)c1 (stereo not drawn) [Example 59, 3-hydroxy-4-(pivalyloxy)-alpha-(tert-butylaminomethyl)benzyl alcohol methanesulfonate] | 1.2 mcg(base) | 25 ± 5.6 | 
2 | CCCC(C)(C)C(=O)Oc1ccc(C(O)CNC(C)(C)C)cc1O (stereo not drawn) [Example 140, 3-hydroxy-4-(2,2-dimethylpentanoyloxy)-alpha-(tert-butylaminomethyl)benzyl alcohol methanesulfonate] |  |  | > 30
3 | CC(C)CC(=O)Oc1ccc(C(O)CNC(C)(C)C)cc1O (stereo not drawn) [Example 58, 3-hydroxy-4-(isovaleryloxy)-alpha-(tert-butylamino-methyl)benzyl alcohol methanesulfonate] | 1.4 mcg(base) | 12 ± 2.5 | 
